{
  "source": "patent US11844800B2",
  "about": "“Methods and compositions for predicting and preventing relapse of acute lymphoblastic leukemia” (Massachusetts Institute of Technology, priority 2019, dated 2023)",
  "tested_on": "BCR-ABL mutant B-cell ALL",
  "parameters": "species or system mice",
  "details": "mouse, in vivo",
  "note": "At least one structure is not confirmed: it was looked up by name or label, or the drawing left a doubt.",
  "data": [
    {"smiles": "Cc1ccc(C(=O)Nc2ccc(CN3CCN(C)CC3)c(C(F)(F)F)c2)cc1C#Cc1cnc2cccnn12", "note": "[ponatinib]", "values": [
      {"measurement": "Event free survival (remission/relapse, in words)", "value": "deep remissions followed by late relapse"}
    ]}
  ]
}
